Laboratory results reported in patent publication US20260241021A1 (priority 2023, published 2026).

Test: general procedure: solution-phase peptide synthesis; HATU

With Boc-GGVC-PAB (COOtBu)-Exatecan the step yield (coupling step) was 65.9%.
With Boc-GGFG-PAB (COOtBu)-PNP the step yield (late stage modification step) was 46.2%.
Boc-GGFG-PAB (COOtBu) showed a conjugation yield (conjugation step) of 98.9%.
